Measurements reported in PubChem BioAssay AID1159599 (NIAID, 2016)
Test: 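Which TLR pathway genes are needed for LPS-driven Tnf promoter activity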. Cell system: mouse RAW264.7 G9 macrophage reporter clone cells. Knock-down reagent: single siRNA against mouse genes. Duration: 48 to 72 h after siRNA transfection, LPS for the last 16 h. Conditions: LPS (Salmonella minnesota R595), 16 h before fixation; dose not stated. Detection: 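High-content imaging of red fluorescence driven by the Tnf promoter after LPS, background subtracted, scored per siRNA as a plate-wise median/MAD robust z-score, replicate mean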. Scale: Tnf reporter z-score: higher = stronger Tnf promoter reporter signal after LPS. Call rule: 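Active when the replicate-mean Tnf reporter z-score is about -1.5 or lower, or about 1.5 or higher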. Calls: active = strong change either way; inactive = little change.
The deposit covers 756 reagents; below is a part drawn at random. Over the whole deposit, 130 (17%) were called active. 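Calls are two-sided: actives include siRNAs that raised the Tnf reporter as well as ones that lowered it.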 Unmarked entries are inactive. The numbers tell different reagents against one gene apart. Reagent sequences are not shown. Not given: the amount of reagent.

gene symbol | reagent | Tnf reporter z-score, replicate mean
Traf3 (TNF receptor-associated factor 3) | 1 | -0.156
Traf3 (TNF receptor-associated factor 3) | 2 | -0.919
Traf3 (TNF receptor-associated factor 3) | 3 | -0.547
Traf3 (TNF receptor-associated factor 3) | 4 | 0.583
Traf3 (TNF receptor-associated factor 3) | 5 | -1.03
Traf3 (TNF receptor-associated factor 3) | 6 | -0.0264
Irf7 (interferon regulatory factor 7) | 1 | -1.84 (active)
Irf7 (interferon regulatory factor 7) | 2 | -0.638
Irf7 (interferon regulatory factor 7) | 3 | -0.245
Irf7 (interferon regulatory factor 7) | 4 | 0.861
Irf7 (interferon regulatory factor 7) | 5 | -0.0683
Irf7 (interferon regulatory factor 7) | 6 | 0.147
Mapk1 (mitogen-activated protein kinase 1) | 1 | -0.843
Mapk1 (mitogen-activated protein kinase 1) | 2 | -1.5
Mapk1 (mitogen-activated protein kinase 1) | 3 | -1.51 (active)
Mapk1 (mitogen-activated protein kinase 1) | 4 | -0.306
Mapk1 (mitogen-activated protein kinase 1) | 5 | -0.0356
Mapk1 (mitogen-activated protein kinase 1) | 6 | 0.0171
Mapk12 (mitogen-activated protein kinase 12) | 1 | 0.313
Mapk12 (mitogen-activated protein kinase 12) | 2 | -0.314
Mapk12 (mitogen-activated protein kinase 12) | 3 | -1.11
Mapk12 (mitogen-activated protein kinase 12) | 4 | 2.15 (active)
Mapk12 (mitogen-activated protein kinase 12) | 5 | -0.398
Mapk12 (mitogen-activated protein kinase 12) | 6 | -1.37
Irak1 (interleukin-1 receptor-associated kinase 1) | 1 | -0.995
Irak1 (interleukin-1 receptor-associated kinase 1) | 2 | 0.926
Irak1 (interleukin-1 receptor-associated kinase 1) | 3 | -0.393
Irak1 (interleukin-1 receptor-associated kinase 1) | 4 | 1.54 (active)
Irak1 (interleukin-1 receptor-associated kinase 1) | 5 | -0.0589
Irak1 (interleukin-1 receptor-associated kinase 1) | 6 | -0.785
Fadd (Fas associated via death domain) | 1 | -0.307
Fadd (Fas associated via death domain) | 2 | -2.25 (active)
Fadd (Fas associated via death domain) | 3 | -0.787
Fadd (Fas associated via death domain) | 4 | 0.743
Fadd (Fas associated via death domain) | 5 | -0.888
Fadd (Fas associated via death domain) | 6 | 0.145
Fos (Fos proto-oncogene, AP-1 transcription factor subunit) | 1 | -1.11
Fos (Fos proto-oncogene, AP-1 transcription factor subunit) | 2 | -0.74
Fos (Fos proto-oncogene, AP-1 transcription factor subunit) | 3 | 1.07
Fos (Fos proto-oncogene, AP-1 transcription factor subunit) | 4 | -0.502
Fos (Fos proto-oncogene, AP-1 transcription factor subunit) | 5 | -0.604
Fos (Fos proto-oncogene, AP-1 transcription factor subunit) | 6 | 0.0591
Arf6 (ARF GTPase 6) | 1 | -0.735
Arf6 (ARF GTPase 6) | 2 | 0.938
Arf6 (ARF GTPase 6) | 3 | 0.641
Arf6 (ARF GTPase 6) | 4 | 1.07
Arf6 (ARF GTPase 6) | 5 | 2.3 (active)
Arf6 (ARF GTPase 6) | 6 | 1.82 (active)
